Test results published in PMC10024175, “Structuring supramolecular hyaluronan hydrogels via peptide self-assembly for modulating the cell microenvironment” (Materials Today Bio, 2023).
These are yes or no findings as the source states them, for the method shown.

Tests used:
[1] = target: (KI)2K peptide; assay: condition: only at pH 7 with NaCl up to 400 mM, 10 mM peptide; FTIR spectroscopy; 10 mM peptide in D2O, pH 7, NaCl 0, 50, 100, 200, 300 and 400 mM; beta-sheet formation read as self-assembly; both purified
[2] = target: (KI)2K peptide; assay: condition: only at neutral pH, 1 mM peptide in water; zeta potential; 1 mM peptide in ultrapure water, neutral pH; self-association of the peptide; both purified
[3] = target: (KI)3K peptide; assay: as above
[4] = target: (KI)4K peptide; assay: as above

B1: (KI)2K peptide (peptide)
peptide: KIKIK
modifications: acetylated N-terminus
binding [1]: no binding | binding [2]: no binding

B2: (KI)3K peptide (peptide)
peptide: KIKIKIK
modifications: acetylated N-terminus
binding [3]: no binding

B3: (KI)4K peptide (peptide)
peptide: KIKIKIKIK
modifications: acetylated N-terminus
binding [4]: no binding
